# Measurements published in patent US20240226228A1, “ANTIMICROBIAL PEPTOID HAVING IMPROVED SELECTIVITY AND ANTIMICROBIAL COMPOSITION COMPRISING SAME” (priority 2021, published 2024).
# Test system: red blood cells / E. coli
# Test: Analysis of selectivity of peptoid (HD10 divided by MIC against E. coli)
# Conditions: HD10 divided by MIC against E. coli
row,Compound,Selectivity
1,"C[C@@H](c1ccccc1)N(CC(N)=O)C(=O)CN(C(=O)CN(CCCCN)C(=O)CN(C(=O)CN(C(=O)CN(CCCCN)C(=O)CN(C(=O)CN(C(=O)CN(CCCCN)C(=O)CN(C(=O)CN(C(=O)CNCCCCN)[C@@H](C)c1ccccc1)[C@@H](C)c1ccccc1)[C@@H](C)c1ccccc1)[C@@H](C)c1ccccc1)[C@@H](C)c1ccccc1)[C@@H](C)c1ccccc1)[C@@H](C)c1ccccc1 [Peptoid 1, H-NLys-Nspe-Nspe-NLys-Nspe-Nspe-NLys-Nspe-Nspe-NLys-Nspe-Nspe-NH2, reference compound] (H-[Nlys][Nspe][Nspe][Nlys][Nspe][Nspe][Nlys][Nspe][Nspe][Nlys][Nspe][Nspe]-NH2)",7.4

# Same assay, conditions: Table 18; TFA salt vs counter ion-substituted peptoids
row,Compound,Selectivity
1,"C[C@@H](c1ccccc1)N(CC(N)=O)C(=O)CN(C(=O)CN(CCCCN)C(=O)CN(C(=O)CN(C(=O)CN(CCCCN)C(=O)CN(C(=O)CN(C(=O)CN(CCCCN)C(=O)CN(C(=O)CN(C(=O)CNCCCCN)[C@@H](C)c1ccccc1)[C@@H](C)c1ccccc1)[C@@H](C)c1ccccc1)[C@@H](C)c1ccccc1)[C@@H](C)c1ccccc1)[C@@H](C)c1ccccc1)[C@@H](C)c1ccccc1 [Peptoid 1, H-NLys-Nspe-Nspe-NLys-Nspe-Nspe-NLys-Nspe-Nspe-NLys-Nspe-Nspe-NH2, reference compound] (H-[Nlys][Nspe][Nspe][Nlys][Nspe][Nspe][Nlys][Nspe][Nspe][Nlys][Nspe][Nspe]-NH2)",2.5
2,"C[C@@H](c1ccccc1)N(CC(N)=O)C(=O)CN(C(=O)CN(CCCCN)C(=O)CN(C(=O)CN(C(=O)CN(CCCCN)C(=O)CN(C(=O)CN(C(=O)CN(CCCCN)C(=O)CN(C(=O)CN(C(=O)CNCCCCN)[C@@H](C)c1ccccc1)[C@@H](C)c1ccccc1)[C@@H](C)c1ccccc1)[C@@H](C)c1ccccc1)[C@@H](C)c1ccccc1)[C@@H](C)c1ccccc1)[C@@H](C)c1ccccc1 [Peptoid 1-1, reference compound] (H-[Nlys][Nspe][Nspe][Nlys][Nspe][Nspe][Nlys][Nspe][Nspe][Nlys][Nspe][Nspe]-NH2)",4.4
3,"C[C@@H](c1ccccc1)N(CC(N)=O)C(=O)CN(C(=O)CN(CCCCN)C(=O)CN(C(=O)CN(C(=O)CN(CCCCN)C(=O)CN(C(=O)CN(C(=O)CN(CCCCN)C(=O)CN(C(=O)CN(C(=O)CNCCCCN)[C@@H](C)c1ccccc1)[C@@H](C)c1ccccc1)[C@@H](C)c1ccccc1)[C@@H](C)c1ccccc1)[C@@H](C)c1ccccc1)[C@@H](C)c1ccccc1)[C@@H](C)c1ccccc1 [Peptoid 1-2, reference compound] (H-[Nlys][Nspe][Nspe][Nlys][Nspe][Nspe][Nlys][Nspe][Nspe][Nlys][Nspe][Nspe]-NH2)",2
4,C[C@@H](c1ccccc1)N(CC(N)=O)C(=O)CN(C(=O)CN(CCCCN)C(=O)CN(C(=O)CN(CCc1c[nH]c2ccccc12)C(=O)CN(CCCCN)C(=O)CN(CCc1c[nH]c2ccccc12)C(=O)CN(C(=O)CN(CCCCN)C(=O)CN(C(=O)CN(C(=O)CNCCCCN)[C@@H](C)c1ccccc1)[C@@H](C)c1ccccc1)[C@@H](C)c1ccccc1)[C@@H](C)c1ccccc1)[C@@H](C)c1ccccc1 [Peptoid 15-1],8
5,"C[C@@H](c1ccccc1)N(CC(=O)N(CCCCN)CC(=O)N(CCc1c[nH]c2ccccc12)CC(=O)N(CCc1c[nH]c2ccccc12)CC(N)=O)C(=O)CN(CCCCN)C(=O)CN(CCCCN)C(=O)CN(C(=O)CN(C(=O)CN(CCCCN)C(=O)CN(C(=O)CN(C(=O)CNCCCCN)[C@@H](C)c1ccccc1)[C@@H](C)c1ccccc1)[C@@H](C)c1ccccc1)[C@@H](C)c1ccccc1 [Peptoid 29, H-NLys-Nspe-Nspe-NLys-Nspe-Nspe-NLys-NLys-Nspe-NLys-NhTrp-NhTrp-NH2] (H-[Nlys][Nspe][Nspe][Nlys][Nspe][Nspe][Nlys][Nlys][Nspe][Nlys][Gly(N(CH2)2(3-indolyl))][Gly(N(CH2)2(3-indolyl))]-NH2)",14.1
6,C[C@@H](c1ccccc1)N(CC(=O)N(CCCCN)CC(=O)N(CCc1c[nH]c2ccccc12)CC(=O)N(CCc1c[nH]c2ccccc12)CC(N)=O)C(=O)CN(CCCCN)C(=O)CN(CCCCN)C(=O)CN(C(=O)CN(C(=O)CN(CCCCN)C(=O)CN(C(=O)CN(C(=O)CNCCCCN)[C@@H](C)c1ccccc1)[C@@H](C)c1ccccc1)[C@@H](C)c1ccccc1)[C@@H](C)c1ccccc1 [Peptoid 29-1] (H-[Nlys][Nspe][Nspe][Nlys][Nspe][Nspe][Nlys][Nlys][Nspe][Nlys][Gly(N(CH2)2(3-indolyl))][Gly(N(CH2)2(3-indolyl))]-NH2),>8.0
7,C[C@@H](c1ccccc1)N(CC(=O)N(CCCCN)CC(=O)N(CCc1c[nH]c2ccccc12)CC(=O)N(CCc1c[nH]c2ccccc12)CC(N)=O)C(=O)CN(CCCCN)C(=O)CN(CCCCN)C(=O)CN(C(=O)CN(C(=O)CN(CCCCN)C(=O)CN(C(=O)CN(C(=O)CNCCCCN)[C@@H](C)c1ccccc1)[C@@H](C)c1ccccc1)[C@@H](C)c1ccccc1)[C@@H](C)c1ccccc1 [Peptoid 29-2] (H-[Nlys][Nspe][Nspe][Nlys][Nspe][Nspe][Nlys][Nlys][Nspe][Nlys][Gly(N(CH2)2(3-indolyl))][Gly(N(CH2)2(3-indolyl))]-NH2),>15.9
8,C[C@@H](c1ccccc1)N(CC(N)=O)C(=O)CN(CCCCN)C(=O)CN(CCCCN)C(=O)CN(C(=O)CN(C(=O)CN(CCCCN)C(=O)CN(C(=O)CN(C(=O)CN(CCCCN)C(=O)CN(CCc1c[nH]c2ccccc12)C(=O)CN(CCc1c[nH]c2ccccc12)C(=O)CNCCCCN)[C@@H](C)c1ccccc1)[C@@H](C)c1ccccc1)[C@@H](C)c1ccccc1)[C@@H](C)c1ccccc1 [Peptoid 32-1],>15.9
9,C[C@@H](c1ccccc1)N(CC(=O)N(CCCCN)CC(=O)N(CC(=O)N(CC(=O)N(CCCCN)CC(=O)N(CC(=O)N(CC(=O)N(CCCCN)CC(N)=O)[C@@H](C)c1ccccc1)[C@@H](C)c1ccccc1)[C@@H](C)c1ccccc1)[C@@H](C)c1ccccc1)C(=O)CN(C(=O)CN(CCCCN)C(=O)CN(CCc1c[nH]c2ccccc12)C(=O)CNCCc1c[nH]c2ccccc12)[C@@H](C)c1ccccc1 [Peptoid 37-2] (H-[Gly(N(CH2)2(3-indolyl))][Gly(N(CH2)2(3-indolyl))][Nlys][Nspe][Nspe][Nlys][Nspe][Nspe][Nlys][Nspe][Nspe][Nlys]-NH2),2

# Same assay, conditions: Tables 11-13
row,Compound,Selectivity [HD10/MIC (E. coli)]
1,"C[C@@H](c1ccccc1)N(CC(N)=O)C(=O)CN(C(=O)CN(CCCCN)C(=O)CN(C(=O)CN(C(=O)CN(CCCCN)C(=O)CN(C(=O)CN(C(=O)CN(CCCCN)C(=O)CN(C(=O)CN(C(=O)CNCCCCN)[C@@H](C)c1ccccc1)[C@@H](C)c1ccccc1)[C@@H](C)c1ccccc1)[C@@H](C)c1ccccc1)[C@@H](C)c1ccccc1)[C@@H](C)c1ccccc1)[C@@H](C)c1ccccc1 [Peptoid 1, H-NLys-Nspe-Nspe-NLys-Nspe-Nspe-NLys-Nspe-Nspe-NLys-Nspe-Nspe-NH2, reference compound] (H-[Nlys][Nspe][Nspe][Nlys][Nspe][Nspe][Nlys][Nspe][Nspe][Nlys][Nspe][Nspe]-NH2)",1.3
2,C[C@@H](c1ccccc1)N(CC(=O)N(CCCCN)CC(=O)N(CCCCN)CC(=O)N(CCc1c[nH]c2ccccc12)CC(=O)N(CCc1c[nH]c2ccccc12)CC(N)=O)C(=O)CN(CCCCN)C(=O)CN(C(=O)CN(C(=O)CN(CCCCN)C(=O)CN(C(=O)CN(C(=O)CNCCCCN)[C@@H](C)c1ccccc1)[C@@H](C)c1ccccc1)[C@@H](C)c1ccccc1)[C@@H](C)c1ccccc1 [Peptoid 28] (H-[Nlys][Nspe][Nspe][Nlys][Nspe][Nspe][Nlys][Nspe][Nlys][Nlys][Gly(N(CH2)2(3-indolyl))][Gly(N(CH2)2(3-indolyl))]-NH2),>8.0
3,"C[C@@H](c1ccccc1)N(CC(=O)N(CCCCN)CC(=O)N(CCc1c[nH]c2ccccc12)CC(=O)N(CCc1c[nH]c2ccccc12)CC(N)=O)C(=O)CN(CCCCN)C(=O)CN(CCCCN)C(=O)CN(C(=O)CN(C(=O)CN(CCCCN)C(=O)CN(C(=O)CN(C(=O)CNCCCCN)[C@@H](C)c1ccccc1)[C@@H](C)c1ccccc1)[C@@H](C)c1ccccc1)[C@@H](C)c1ccccc1 [Peptoid 29, H-NLys-Nspe-Nspe-NLys-Nspe-Nspe-NLys-NLys-Nspe-NLys-NhTrp-NhTrp-NH2] (H-[Nlys][Nspe][Nspe][Nlys][Nspe][Nspe][Nlys][Nlys][Nspe][Nlys][Gly(N(CH2)2(3-indolyl))][Gly(N(CH2)2(3-indolyl))]-NH2)",>15.9
4,C[C@@H](c1ccccc1)N(CC(=O)N(CCCCN)CC(=O)N(CC(=O)N(CC(=O)N(CCCCN)CC(=O)N(CCc1c[nH]c2ccccc12)CC(=O)N(CCc1c[nH]c2ccccc12)CC(N)=O)[C@@H](C)c1ccccc1)[C@@H](C)c1ccccc1)C(=O)CN(CCCCN)C(=O)CN(CCCCN)C(=O)CN(C(=O)CN(C(=O)CNCCCCN)[C@@H](C)c1ccccc1)[C@@H](C)c1ccccc1 [Peptoid 30] (H-[Nlys][Nspe][Nspe][Nlys][Nlys][Nspe][Nlys][Nspe][Nspe][Nlys][Gly(N(CH2)2(3-indolyl))][Gly(N(CH2)2(3-indolyl))]-NH2),>8.0
5,C[C@@H](c1ccccc1)N(CC(N)=O)C(=O)CN(C(=O)CN(CCCCN)C(=O)CN(C(=O)CN(CCCCN)C(=O)CN(CCCCN)C(=O)CN(C(=O)CN(C(=O)CN(CCCCN)C(=O)CN(CCc1c[nH]c2ccccc12)C(=O)CN(CCc1c[nH]c2ccccc12)C(=O)CNCCCCN)[C@@H](C)c1ccccc1)[C@@H](C)c1ccccc1)[C@@H](C)c1ccccc1)[C@@H](C)c1ccccc1 [Peptoid 33],>8.0
6,C[C@@H](c1ccccc1)N(CC(=O)N(CCCCN)CC(=O)N(CCCCN)CC(=O)N(CC(=O)N(CC(=O)N(CCCCN)CC(=O)N(CC(=O)N(CC(=O)N(CCCCN)CC(N)=O)[C@@H](C)c1ccccc1)[C@@H](C)c1ccccc1)[C@@H](C)c1ccccc1)[C@@H](C)c1ccccc1)C(=O)CN(CCCCN)C(=O)CN(CCc1c[nH]c2ccccc12)C(=O)CNCCc1c[nH]c2ccccc12 [Peptoid 38] (H-[Gly(N(CH2)2(3-indolyl))][Gly(N(CH2)2(3-indolyl))][Nlys][Nspe][Nlys][Nlys][Nspe][Nspe][Nlys][Nspe][Nspe][Nlys]-NH2),>8.0
7,C[C@@H](c1ccccc1)N(CC(=O)N(CCCCN)CC(=O)N(CCc1c[nH]c2ccccc12)CC(=O)N(CCc1c[nH]c2ccccc12)CC(N)=O)C(=O)CN(CCCCN)C(=O)CN(CCCCN)C(=O)CN(Cc1ccccc1)C(=O)CN(Cc1ccccc1)C(=O)CN(CCCCN)C(=O)CN(C(=O)CN(C(=O)CNCCCCN)[C@@H](C)c1ccccc1)[C@@H](C)c1ccccc1 [Peptoid 40] (H-[Nlys][Nspe][Nspe][Nlys][Nphe][Nphe][Nlys][Nlys][Nspe][Nlys][Gly(N(CH2)2(3-indolyl))][Gly(N(CH2)2(3-indolyl))]-NH2),>8.0
8,C[C@@H](c1ccccc1)N(CC(=O)N(CCCCN)CC(=O)N(CCc1c[nH]c2ccccc12)CC(=O)N(CCc1c[nH]c2ccccc12)CC(N)=O)C(=O)CN(CCCCN)C(=O)CN(CCCCN)C(=O)CN(C(=O)CN(C(=O)CN(CCCCN)C(=O)CN(Cc1ccccc1)C(=O)CN(Cc1ccccc1)C(=O)CNCCCCN)[C@@H](C)c1ccccc1)[C@@H](C)c1ccccc1 [Peptoid 41] (H-[Nlys][Nphe][Nphe][Nlys][Nspe][Nspe][Nlys][Nlys][Nspe][Nlys][Gly(N(CH2)2(3-indolyl))][Gly(N(CH2)2(3-indolyl))]-NH2),>4.0
9,C[C@@H](c1ccccc1)N(CC(N)=O)C(=O)CN(CCCCN)C(=O)CN(CCCCN)C(=O)CN(C(=O)CN(C(=O)CN(CCCCN)C(=O)CN(C(=O)CN(C(=O)CN(CCCCN)C(=O)CN(Cc1ccccc1)C(=O)CN(Cc1ccccc1)C(=O)CNCCCCN)[C@@H](C)c1ccccc1)[C@@H](C)c1ccccc1)[C@@H](C)c1ccccc1)[C@@H](C)c1ccccc1 [Peptoid 47],>4.0

# Where a SMILES comes first, the peptide text is derived from it. [ ]: non-standard residue; d: D form. Gly(N(CH2)2(3-indolyl)) = O=C(O)CNCCc1c[nH]c2ccccc12; Nspe = C[C@H](NCC(=O)O)c1ccccc1; Nphe = O=C(O)CNCc1ccccc1; Nlys = NCCCCNCC(=O)O
